# Data from article PMC8773529 (Cancers, 2022).
# Columns and labels:
# [1] = test system: lipid metabolism proteins in RWPE-1 cells; experiment: LC-MS proteome analysis, RWPE-1; assay type: cell-based, human; settings: IC50 concentration
# [2] = test system: lipid metabolism proteins in PC3 cells; experiment: LC-MS proteome analysis, PC3; assay type: cell-based, human; settings: IC50 concentration
smiles,measurement,setting,value
O=C(O)c1cn(C2CC2)c2cc(N3CCNCC3)c(F)cc2c1=O [Ciprofloxacin],"2,4-dienoyl-CoA reductase, mitochondrial (DECR) protein expression, RWPE-1",[1]; control = 100%,96.3 % of control
same,"Acetyl-CoA acetyltransferase, mitochondrial (THIL/ACAT1) protein expression, RWPE-1",[1]; control = 100%,94.6 % of control
same,"Acetyl-CoA carboxylase 2 (ACACB) protein expression, RWPE-1",[1]; control = 100%,89.3 % of control
same,"Caveolin-1 (CAV1) protein expression, RWPE-1",[1]; control = 100%,92.5 % of control
same,"Fatty acid synthase (FAS) protein expression, RWPE-1",[1]; control = 100%,94.5 % of control
same,"NPC intracellular cholesterol transporter 2 (NPC2) protein expression, RWPE-1",[1]; control = 100%,91.2 % of control
same,"Perilipin-3 (PLIN3) protein expression, RWPE-1",[1]; control = 100%,95.2 % of control
same,"Phospholipid-transporting ATPase IA (AT8A1) protein expression, RWPE-1",[1]; control = 100%,121.2 % of control
same,"ACACB protein intensity, RWPE-1","[1]; Table S1, 72 h, control 49340",44060.6
same,"NPC2 protein intensity, RWPE-1","[1]; Table S1, 72 h, control 60306",54999.1
same,"CAV1 protein intensity, RWPE-1","[1]; Table S1, 72 h, control 64740",59884.5
same,"AT8A1 protein intensity, RWPE-1","[1]; Table S1, 72 h, control 98750",119685
same,"DECR protein intensity, RWPE-1","[1]; Table S1, 72 h, control 111503",107377.4
same,"PLIN3 protein intensity, RWPE-1","[1]; Table S1, 72 h, control 631231",600932
same,"FAS protein intensity, RWPE-1","[1]; Table S1, 72 h, control 823421",778132.9
same,"2,4-dienoyl-CoA reductase, mitochondrial (DECR) protein expression, PC3",[2]; control = 100%,82.7 % of control
same,"Acetyl-CoA acetyltransferase, mitochondrial (THIL/ACAT1) protein expression, PC3",[2]; control = 100%,83.4 % of control
same,"Acetyl-CoA carboxylase 2 (ACACB) protein expression, PC3",[2]; control = 100%,89.3 % of control
same,"Caveolin-1 (CAV1) protein expression, PC3",[2]; control = 100%,89.2 % of control
same,"Fatty acid synthase (FAS) protein expression, PC3",[2]; control = 100%,87.4 % of control
same,"Fatty acid-binding protein 5 (FABP5) protein expression, PC3",[2]; control = 100%,92.4 % of control
same,"NPC intracellular cholesterol transporter 2 (NPC2) protein expression, PC3",[2]; control = 100%,91.3 % of control
same,"Perilipin-3 (PLIN3) protein expression, PC3",[2]; control = 100%,86.3 % of control
same,"Phospholipid-transporting ATPase IA (AT8A1) protein expression, PC3",[2]; control = 100%,124.5 % of control
same,"THIL protein intensity, PC3","[2]; Table S1, 72 h, control 79046",65924.4
same,"NPC2 protein intensity, PC3","[2]; Table S1, 72 h, control 90108",82268.6
same,"AT8A1 protein intensity, PC3","[2]; Table S1, 72 h, control 115840",144220.8
same,"DECR protein intensity, PC3","[2]; Table S1, 72 h, control 192442",159149.5
same,"ACACB protein intensity, PC3","[2]; Table S1, 72 h, control 253760",226607.7
same,"CAV1 protein intensity, PC3","[2]; Table S1, 72 h, control 725820",647431.4
same,"PLIN3 protein intensity, PC3","[2]; Table S1, 72 h, control 960327",828762.2
same,"FAS protein intensity, PC3","[2]; Table S1, 72 h, control 1125936",984068.1
same,"FABP5 protein intensity, PC3","[2]; Table S1, 72 h, control 2099906",1940313
